Experiment [1] concerns the target TET1F1-Flag (CXXC region of TET1) (human). The experiment can be described thus: co-IP; HEK293T cells co-transfected with PPM1G-HA and Flag-tagged TET1 segments; IP with anti-HA or anti-Flag and protein A/G magnetic beads overnight at 4 °C; lysis buffer 20 mM Tris-HCl pH 7.4, 1 mM EDTA, 150 mM NaCl, 1% NP-40; immunoblot. In general terms: A western blot detects proteins with antibodies after separation by electrophoresis.

For experiment [2], the target named is TET1CD-Flag (TET1 catalytic structural domain, Flag-tagged) (human). Described as above.

Among the data in publication PMC11653675 are binding values, retold here.

No constants are given. Whether binding was seen depends on the method and setting. Binding seen in cells or lysates may run through a third protein. For some assays here: Binding calls can cover weak binding; strength is not graded here. Tags and fused reporters may be left off the sequences shown.

B1: PPM1G-HA (PPM1G-hemagglutinin) (enzyme, UniProt O15355 1-546)
chain: MGAYLSQPNTVKCSGDGVGAPRLPLPYGFSAMQGWRVSMEDAHNCIPELDSETAMFSVYDGHGGEEVALYCAKYLPDIIKDQKAYKEGKLQKALEDAFLAIDAKLTTEEVIKELAQIAGRPTEDEDEKEKVADEDDVDNEEAALLHEEATMTIEELLTRYGQNCHKGPPHSKSGGGTGEEPGSQGLNGEAGPEDSTRETPSQENGPTAKAYTGFSSNSERGTEAGQVGEPGIPTGEAGPSCSSASDKLPRVAKSKFFEDSEDESDEAEEEEEDSEECSEEEDGYSSEEAENEEDEDDTEEAEEDDEEEEEEMMVPGMEGKEEPGSDSGTTAVVALIRGKQLIVANAGDSRCVVSEAGKALDMSYDHKPEDEVELARIKNAGGKVTMDGRVNGGLNLSRAIGDHFYKRNKNLPPEEQMISALPDIKVLTLTDDHEFMVIACDGIWNVMSSQEVVDFIQSKISQRDENGELRLLSSIVEELLDQCLAPDTSGDGTGCDNMTCIIICFKPRNTAELQPESGKRKLEEVLSTEGAEENGNSDKKKKAKRD
As for B1, the figures for the binding result in experiment [1] and in experiment [2] were “no binding” and “binds”, respectively.
